Measured values published in paper PMC6219832.
No constants are given. Whether binding was seen depends on the method and setting. Binding seen in cells or lysates may run through a third protein. These calls come from enrichment with a bait or labelling near it, and not all partners need be listed. Sequences can lack the tags named with a protein.

Chains of the proteins cited; added tags and fusions are not shown.
UniProt O14744: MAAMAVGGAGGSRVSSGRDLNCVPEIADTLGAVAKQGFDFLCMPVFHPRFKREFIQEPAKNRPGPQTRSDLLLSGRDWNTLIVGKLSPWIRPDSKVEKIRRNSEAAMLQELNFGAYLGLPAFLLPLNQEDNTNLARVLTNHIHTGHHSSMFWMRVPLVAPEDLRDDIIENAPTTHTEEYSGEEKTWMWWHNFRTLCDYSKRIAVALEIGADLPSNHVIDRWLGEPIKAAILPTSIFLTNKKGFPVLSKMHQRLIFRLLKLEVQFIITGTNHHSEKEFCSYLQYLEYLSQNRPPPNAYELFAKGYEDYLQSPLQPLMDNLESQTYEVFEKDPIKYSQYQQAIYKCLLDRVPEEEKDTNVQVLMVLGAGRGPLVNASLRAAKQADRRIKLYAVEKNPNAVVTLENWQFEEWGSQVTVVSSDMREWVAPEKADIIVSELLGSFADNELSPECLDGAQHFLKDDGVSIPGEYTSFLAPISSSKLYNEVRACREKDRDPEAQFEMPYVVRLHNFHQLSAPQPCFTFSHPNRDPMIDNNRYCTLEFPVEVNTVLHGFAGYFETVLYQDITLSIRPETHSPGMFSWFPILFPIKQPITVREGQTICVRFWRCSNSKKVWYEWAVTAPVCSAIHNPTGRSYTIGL

Biological target: T1, Flag-DUSP14 (wild-type), expressed in HEK293T cells (human) (UniProt O95147)
T1 sequence: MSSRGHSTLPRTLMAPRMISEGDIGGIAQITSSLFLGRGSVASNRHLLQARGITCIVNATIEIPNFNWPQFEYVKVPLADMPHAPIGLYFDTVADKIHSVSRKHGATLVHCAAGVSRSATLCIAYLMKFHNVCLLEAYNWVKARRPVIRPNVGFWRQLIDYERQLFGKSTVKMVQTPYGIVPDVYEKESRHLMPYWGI
Experiment: affinity purification with mass spectrometry; HEK293T cells transfected with Flag-DUSP14; anti-Flag immunoprecipitation, SDS-PAGE, silver-stained bands excised, trypsin, MS

binding: binds
Substance: endogenous PRMT5 of HEK293T cells (from UniProt O14744 1-637) (enzyme)
